## Screening data, single-dose tests

The chains behind the UniProt entries cited, without tags or fusion partners. Residues count along the entry.
UniProt Q4DA54, 1-478: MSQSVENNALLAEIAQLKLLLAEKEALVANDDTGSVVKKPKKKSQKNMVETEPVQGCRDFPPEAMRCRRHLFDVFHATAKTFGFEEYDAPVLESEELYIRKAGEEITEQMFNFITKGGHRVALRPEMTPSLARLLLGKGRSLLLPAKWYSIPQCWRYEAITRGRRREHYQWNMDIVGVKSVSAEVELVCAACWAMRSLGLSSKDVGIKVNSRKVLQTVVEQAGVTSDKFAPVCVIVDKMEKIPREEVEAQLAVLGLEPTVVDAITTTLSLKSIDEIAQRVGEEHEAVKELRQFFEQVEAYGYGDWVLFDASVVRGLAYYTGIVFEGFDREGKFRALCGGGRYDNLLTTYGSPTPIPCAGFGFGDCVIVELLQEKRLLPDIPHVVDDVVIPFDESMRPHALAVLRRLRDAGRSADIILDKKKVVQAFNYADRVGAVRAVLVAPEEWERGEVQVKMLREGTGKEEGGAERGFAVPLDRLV
UniProt P9WPC5, whole entry: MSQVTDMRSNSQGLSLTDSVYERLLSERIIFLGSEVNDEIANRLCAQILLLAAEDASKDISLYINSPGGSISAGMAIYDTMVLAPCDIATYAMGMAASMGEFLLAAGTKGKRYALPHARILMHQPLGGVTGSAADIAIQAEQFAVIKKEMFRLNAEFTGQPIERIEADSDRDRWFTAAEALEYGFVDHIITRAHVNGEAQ
UniProt P9WPC3, whole entry partner: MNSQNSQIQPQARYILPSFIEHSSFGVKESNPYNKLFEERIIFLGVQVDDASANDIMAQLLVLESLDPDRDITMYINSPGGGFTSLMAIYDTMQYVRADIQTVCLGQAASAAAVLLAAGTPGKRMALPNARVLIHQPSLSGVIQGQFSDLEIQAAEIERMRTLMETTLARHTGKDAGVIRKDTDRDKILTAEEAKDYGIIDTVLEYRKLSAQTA
UniProt Q8IDJ8, 1-583: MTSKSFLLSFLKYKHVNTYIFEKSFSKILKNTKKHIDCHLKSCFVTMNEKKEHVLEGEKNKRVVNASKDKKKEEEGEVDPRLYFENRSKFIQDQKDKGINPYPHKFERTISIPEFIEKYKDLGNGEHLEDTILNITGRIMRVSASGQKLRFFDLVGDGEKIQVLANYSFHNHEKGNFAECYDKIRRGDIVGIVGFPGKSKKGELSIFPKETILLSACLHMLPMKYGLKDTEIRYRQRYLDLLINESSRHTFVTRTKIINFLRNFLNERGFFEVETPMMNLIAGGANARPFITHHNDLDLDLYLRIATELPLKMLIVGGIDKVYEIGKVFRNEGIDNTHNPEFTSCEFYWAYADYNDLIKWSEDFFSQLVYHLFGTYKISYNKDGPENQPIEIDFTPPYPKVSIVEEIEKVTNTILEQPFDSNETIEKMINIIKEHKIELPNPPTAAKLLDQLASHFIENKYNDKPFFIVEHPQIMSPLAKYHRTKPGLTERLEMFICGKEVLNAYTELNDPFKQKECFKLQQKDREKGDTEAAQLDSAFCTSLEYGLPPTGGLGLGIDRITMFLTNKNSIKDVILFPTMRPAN
UniProt A4I591, 1-473: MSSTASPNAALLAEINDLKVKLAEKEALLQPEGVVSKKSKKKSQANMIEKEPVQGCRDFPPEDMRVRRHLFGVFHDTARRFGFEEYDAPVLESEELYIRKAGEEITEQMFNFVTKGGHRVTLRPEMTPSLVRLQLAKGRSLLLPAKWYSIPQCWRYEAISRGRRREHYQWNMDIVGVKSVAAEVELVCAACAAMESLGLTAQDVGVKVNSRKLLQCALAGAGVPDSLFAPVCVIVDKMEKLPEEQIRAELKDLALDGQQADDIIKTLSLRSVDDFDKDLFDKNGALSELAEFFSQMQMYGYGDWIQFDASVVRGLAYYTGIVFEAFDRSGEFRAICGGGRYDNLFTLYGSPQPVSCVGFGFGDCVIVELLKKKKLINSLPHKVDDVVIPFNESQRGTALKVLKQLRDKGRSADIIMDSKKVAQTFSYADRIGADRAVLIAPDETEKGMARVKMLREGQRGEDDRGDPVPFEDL

The values are deposited in ChEMBL (CHEMBL3988442, “University of Dundee, Small-Polar-MMV Screening Library” (2021)).

TcHisRS: 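Enzyme assay of histidyl-tRNA synthetase; the read-out is not stated. Target: Histidine-tRNA ligase, Trypanosoma cruzi CL Brener (UniProt Q4DA54). Compounds at 30 µM. Higher reads as stronger inhibition (inferred: compounds with an IC50 in retests scored well above the rest). Of about 69,000 compounds tested this way, about 31 (0.045%) reached 50% or more in at least one test.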
ClpP1P2: 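ClpP1P2, Mycobacterium tuberculosis (UniProt P9WPC5 and UniProt P9WPC3). Protease assay of ClpP1P2, read by the AMC dye that it sets free. Tested at 50 µM. Direction is inferred from only a few compounds that gave an IC50; most scored high, so higher reads as stronger inhibition. Most other retested compounds had strongly negative values. About 69,000 compounds were tested under these conditions; 0.015% (about 10) showed 50% or more at least once.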
PfKRS1: 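Lysine-tRNA ligase, Plasmodium falciparum 3D7 (UniProt Q8IDJ8). Enzyme assay of the cytosolic lysyl-tRNA synthetase in 384-well plates, read by luminescence. Compounds at 30 µM. Higher reads as stronger inhibition, judged from the few compounds that gave an IC50. About 69,000 compounds were tested under these conditions; 0.071% (about 49) showed 50% or more at least once.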
LiHisRS: 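Histidine-tRNA ligase, Leishmania infantum (UniProt A4I591). Enzyme assay of histidyl-tRNA synthetase; the read-out is not stated. Compounds at 30 µM. Higher reads as stronger inhibition (inferred: compounds with an IC50 in retests scored well above the rest). The assay is labelled LdHisRS but filed under L. infantum. Size under these conditions: about 69,000 compounds, about 410 of them at 50% or above in at least one test.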

Each number is a percent effect as filed.
How 0% and 100% were set is not recorded. Most values in the screen are low, and negative values occur.
This is an unselected part of the compounds tested.

| compound | TcHisRS | ClpP1P2 | PfKRS1 | LiHisRS |
|---|---|---|---|---|
| `COc1ccc(CNC(=O)Nc2cccnc2OC)cc1O` | 3.198 | -17.21 | 0.854 | 18.42 |
| `COc1ccccc1C1CNC(=O)c2nc(-c3nccn3C)[nH]c2C1` (stereo not given) | 1.02 | 5.144 | 3.37 | 33.33 |
| `COc1cccc(C(=O)NC(C)CCN2CCOCC2)c1F` (stereo not given) | 6.18 | 1.826 | 7.599 | 7.692 |
| `Cc1ccc(CNc2cnn(CC(F)F)c2)cc1C` | 3.448 | -7.607 | 2.628 | 4.386 |
| `CN(Cc1ccsc1)C(=O)C1CCC(=O)N(Cc2ccccn2)C1` (stereo not given) | 0 | -25.93 | -3.272 | 2 |
| `CC(C)CC(=O)NS(=O)(=O)c1ccc2c(c1)OCCCO2` | 1.734 | -16.06 | 0.344 | -0.8772 |
| `O=C1COC2(CCN(c3ncccn3)CC2)CN1c1ccsc1` | 5.747 | 13.41 | 4.263 | 10 |
| `CC1(C)OCC2(CO1)CN(S(=O)(=O)c1ccc(Br)s1)C2` | 7.216 | -5.583 | 6.281 | 8.696 |
| `Cc1nc(CN2CCC(C(=O)N(C)C3CCC(C)CC3)CC2)cs1` (stereo not given) | 7.071 | -3.258 | 1.917 | 11.11 |
| `NC1(c2nc(-c3cccs3)cc(=O)[nH]2)CCCCC1` | 13.73 | 1.508 | -5.421 | -5 |
| `Cn1cc(-c2ncc3c(c2C(=O)O)CCN(CC2CCOC2)C3)cn1` (stereo not given) | 4.523 | 5.464 | 1.441 | 5.941 |
| `CC(C)N(Cc1cnn(C)c1)C(=O)c1ccnc(N(C)C)c1` | 0 | 2.17 | 2.181 | 20 |
| `COc1ccccc1OC1(C(=O)O)CCN(c2cnccn2)CC1` | -13.73 | -3.402 | -6.185 | 11.2 |
| `O=C1CCCN1Cc1nnc2n1CCN(Cc1ccccn1)CC2` | 5.825 | -1.75 | 4.714 | 9.615 |
| `N#Cc1nccnc1N1CCN(CCOCc2ccccc2)CC1` | 10.98 | -2.154 | 1.142 | 12.77 |
| `CSc1nccn1-c1cccc(C(=O)NCCN2CCS(=O)(=O)CC2)c1` | 6.936 | -22.4 | 2.667 | 13.39 |
| `COC(=O)CCNC(=O)c1coc(COc2ccc(F)cc2)n1` | 0 | -6.309 | 0.9024 | -3.03 |
| `O=C(C[C@H]1[C@H]2CN(c3ncccn3)C[C@@H]12)Nc1cccnc1` | 0 | 11.24 | 3.605 | 36.84 |
| `Cc1cc(N2CCc3cnc(C)nc3C2)n2nc(C(F)(F)F)nc2n1` | 7.975 | -7.523 | 5.37 | 29.63 |
| `O=C1CO[C@@H]2CN(Cc3ccsc3)C[C@H]2N1Cc1ccncc1` | 9.091 | 1.026 | 7.615 | 14.55 |
| `c1ccc2oc(CCCN3CCCC3Cn3cncn3)nc2c1` (stereo not given) | 2.682 | -4.359 | 5.057 | 15.38 |
| `Cc1cnn(CC2CCCN2Cc2cc(C)no2)c1` (stereo not given) | 4.118 | -47.9 | 1.214 | 1.835 |
| `Cc1cccn2c(CC(=O)N3CCC(CCn4cccn4)CC3)cnc12` | -2.155 | -1.309 | 5.386 | 11.39 |
| `CCn1ncc(S(=O)(=O)N[C@@H]2CC[C@@H](n3ccnc3)[C@@H]2O)c1C` | 1.149 | 0.8225 | 0.5268 | 10.07 |
| `CC(C)c1ocnc1C(=O)NC(c1nnc2n1CCNCC2)C(C)C` (stereo not given) | 5.464 | 0.8094 | 1.903 | 10.96 |
| `CC(CNC(=O)N1CCC(CO)CC1)Cc1cccs1` (stereo not given) | -1.087 | 1.959 | 0.2979 | 9.091 |
| `O=c1c2cccc(F)c2ncn1CCN1CCNCC1` | 11.6 | 2.512 | -0.111 | 23.94 |
| `O=C(CN1CCN(c2ccnc3c(F)ccc(F)c23)CC1)N1CCCC1` | -2.02 | 6.935 | 1.792 | 17.46 |
| `CCCOCCNc1nc2c(s1)c(C)nn2C` | 6.548 | 7.967 | -2.151 | 9.677 |
| `O=C1CCC2(CCN(Cc3cscn3)CC2)CN1[C@H]1CC[C@H](O)CC1` | 7.182 | -1.291 | 2.893 | 21.69 |
| `O=c1nc(SCc2ccncc2)c2c(n1CCO)CCCC2` | 0.8264 | 2.719 | -0.1739 | 17.31 |
| `Cc1cccc(CN2CCN(c3ncnc4[nH]ccc34)CC2CCO)n1` (stereo not given) | 4.444 | -1.927 | 0.7787 | 16.24 |
| `Cc1nn(C)c(C)c1NC(=O)c1cccc(CN2CC[C@H](O)C2)c1` | 6.931 | -3.549 | -0.3677 | 11.96 |
| `O=C(CN(Cc1ccco1)C1CC1)Nc1ccc(Br)cn1` | 7.407 | -4.057 | 3.685 | 12.9 |
| `CCn1ncnc1C(C)NC(=O)COc1ccc(Cl)cc1Cl` (stereo not given) | 0 | -26.35 | 1.397 | 14.17 |
| `CC(Nc1ccn(CCS(C)(=O)=O)n1)c1ccc(C#N)cc1` (stereo not given) | 5.882 | -6.274 | 0.5313 | 8.901 |
| `Cc1n[nH]c(C2CN(C(=O)c3ccco3)CCO2)n1` (stereo not given) | 4.348 | -1.44 | 2.496 | 17.14 |
| `Cc1cccc(C)c1Nc1noc2c1CN(C(=O)c1c[nH]nc1C)CC2` | 2.26 | 1.776 | 2.731 | 8.392 |
| `O=C(CN1CCOC1=O)N1CCc2nnc(Cc3ccccc3)n2CC1` | 1.807 | 5.497 | 2.811 | 13.19 |
| `CC(C)CN1C(=O)CC[C@H]2CN(C(=O)Cn3ccccc3=O)CC[C@H]21` | 0.8772 | -13.41 | 2.396 | 11.29 |
| `CC(=O)N[C@H]1CCO[C@@H](c2cccc(NC(=O)c3ccc(=O)[nH]n3)c2)C1` | 2.825 | 7.195 | -0.6774 | 1.399 |
| `CN([C@@H]1CC[C@@H](N2CCOCC2)[C@@H]1O)S(=O)(=O)c1ccccc1` | 5.303 | -15.67 | 2.519 | 7.042 |
| `N#Cc1c(F)cccc1N1CCN(C(=O)Nc2nncs2)CC1` | 6.25 | 4.359 | 0.1634 | 21.95 |
| `Cc1oncc1C(=O)NCC(c1ccccc1Cl)N1CCOCC1` (stereo not given) | -2.956 | 12.41 | 6.181 | 17.81 |
| `CC(C)c1nccn1-c1cccc(C2CCCN(C3CCCC3)C2)n1` (stereo not given) | 8.602 | 0.788 | 2.281 | 22.86 |

The last 3 entries again:

| compound | TcHisRS | ClpP1P2 | PfKRS1 | LiHisRS |
|---|---|---|---|---|
| `N#Cc1c(F)cccc1N1CCN(C(=O)Nc2nncs2)CC1` | 6.25 | 4.359 | 0.1634 | 21.95 |
| `Cc1oncc1C(=O)NCC(c1ccccc1Cl)N1CCOCC1` (stereo not given) | -2.956 | 12.41 | 6.181 | 17.81 |
| `CC(C)c1nccn1-c1cccc(C2CCCN(C3CCCC3)C2)n1` (stereo not given) | 8.602 | 0.788 | 2.281 | 22.86 |